Source: PubChem BioAssay AID651768 (National Center for Advancing Translational Sciences (NCATS), 2012)
About 1,700 (0.47%) of roughly 360,000 compounds were called active. The shares of active, inactive and inconclusive entries below differ from those in the screen. Calls come from the whole dose curve; as a rule, active = well fitted inhibition curve with a large enough effect; inconclusive = small, poorly fitted or top-dose-only effect; inactive = no such curve, though single readings can be large or run the other way. Where the call is inconclusive, the potency comes from a doubtful curve fit.

The chains behind the UniProt entries cited, without tags or fusion partners.
UniProt Q14191, whole entry, looked up: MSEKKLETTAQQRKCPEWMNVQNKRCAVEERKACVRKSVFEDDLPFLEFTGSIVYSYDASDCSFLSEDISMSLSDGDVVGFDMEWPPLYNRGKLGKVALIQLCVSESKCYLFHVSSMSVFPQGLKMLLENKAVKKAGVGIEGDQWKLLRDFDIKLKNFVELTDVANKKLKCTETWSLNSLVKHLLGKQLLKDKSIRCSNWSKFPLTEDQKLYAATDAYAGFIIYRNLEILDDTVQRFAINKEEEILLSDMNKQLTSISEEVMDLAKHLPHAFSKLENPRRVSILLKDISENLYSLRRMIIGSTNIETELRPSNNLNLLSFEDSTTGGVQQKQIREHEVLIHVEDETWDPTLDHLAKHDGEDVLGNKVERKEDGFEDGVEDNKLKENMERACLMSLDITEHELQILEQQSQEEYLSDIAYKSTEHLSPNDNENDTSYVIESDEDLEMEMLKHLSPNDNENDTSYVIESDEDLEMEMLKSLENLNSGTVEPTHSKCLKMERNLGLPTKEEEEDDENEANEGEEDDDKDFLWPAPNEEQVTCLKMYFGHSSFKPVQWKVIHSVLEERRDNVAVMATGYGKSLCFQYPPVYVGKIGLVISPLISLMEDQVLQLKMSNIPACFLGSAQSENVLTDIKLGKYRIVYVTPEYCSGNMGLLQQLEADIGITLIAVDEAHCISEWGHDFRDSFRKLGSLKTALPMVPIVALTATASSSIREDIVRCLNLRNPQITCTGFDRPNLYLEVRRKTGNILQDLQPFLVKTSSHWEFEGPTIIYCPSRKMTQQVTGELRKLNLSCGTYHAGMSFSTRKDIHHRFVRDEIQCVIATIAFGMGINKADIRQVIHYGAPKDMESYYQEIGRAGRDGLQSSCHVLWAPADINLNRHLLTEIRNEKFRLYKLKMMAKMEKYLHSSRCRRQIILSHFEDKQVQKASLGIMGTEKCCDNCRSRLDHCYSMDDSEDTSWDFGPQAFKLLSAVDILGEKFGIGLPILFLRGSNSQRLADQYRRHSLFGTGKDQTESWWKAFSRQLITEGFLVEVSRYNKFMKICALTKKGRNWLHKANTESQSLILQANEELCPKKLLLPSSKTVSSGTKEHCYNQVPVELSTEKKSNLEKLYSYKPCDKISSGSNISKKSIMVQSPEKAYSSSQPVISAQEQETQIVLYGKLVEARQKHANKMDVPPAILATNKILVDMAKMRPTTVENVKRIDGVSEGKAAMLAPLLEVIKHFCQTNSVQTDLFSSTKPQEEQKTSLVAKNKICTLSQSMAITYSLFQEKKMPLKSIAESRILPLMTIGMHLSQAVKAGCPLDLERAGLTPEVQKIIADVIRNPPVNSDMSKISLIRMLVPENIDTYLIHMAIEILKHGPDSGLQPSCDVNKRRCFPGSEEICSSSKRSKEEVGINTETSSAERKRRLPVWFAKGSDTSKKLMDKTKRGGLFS

Target: Bifunctional 3'-5' exonuclease/ATP-dependent helicase WRN (Homo sapiens) (UniProt Q14191)
Assay: qHTS for Inhibitors of WRN Helicase; note: nearly all actives have a fitted effect of over 55% in size
Conditions: WRN helicase unwinding, fluorescent forked duplex, kinetic; activity change, negative = inhibition: at 114 µM (top of the series) unless noted
Method in brief: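 WRN at 20 nM final was preincubated with compound for 15 min at room temperature; reaction started with 100 nM forked duplex oligonucleotide carrying fluorophore and quencher plus 2 mM ATP (final). Unwinding followed kinetically by red fluorescence (ex 525/em 598 nm).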
% is set by controls: 0 for no effect and ±100 for the full control effect; potency is the fitted concentration of half-maximal effect.

SMILES | activity change, negative = inhibition | Potency
N#Cc1ccc(CSc2nnc(Cc3cccs3)n2Cc2ccco2)cc1 | inactive: -34% | –
COc1ccc(NC(=O)/C(C#N)=C\c2ccc(-c3cc(C(=O)O)ccc3C)o2)cc1 | – | inconclusive: 39.8 µM [inhibitor, partial curve]
CC(C)Oc1ccc(S(=O)(=O)N2CCOCC2)cc1NC(=O)Cc1ccsc1 | – | inconclusive: 14.1 µM [inhibitor, full curve, poor fit]
O=c1c(O)c(-c2cc(O)c(O)c(O)c2)oc2cc(O)cc(O)c12 | – | active: 1.12 µM
C/C(N)=C(/C#N)C(=O)CSc1nnc(Nc2c(C)cccc2C)s1 | inconclusive: -45.8% [inhibitor] | inconclusive: 79.4 µM [inhibitor, partial curve]
CCCC(=O)Nc1ccc(C(=O)N/N=C/c2ccc([N+](=O)[O-])o2)cc1 | inactive: 2.88% [at 11.6 µM] | –
CC(NC(=O)OC(C)(C)C)C(=O)Oc1cc2oc(=O)cc(-c3ccccc3)c2cc1Cl (stereo not given) | inactive: -8.26% | –
COc1cc(CCC(=O)OCC(=O)Nc2cc(S(=O)(=O)N3CCOCC3)ccc2Cl)cc(OC)c1OC | – | inconclusive: 22.4 µM [inhibitor, single point]
CCOC(=O)c1sc(NC(=O)c2cc(-c3ccccc3C)nc3ccccc23)c(C#N)c1C | – | inconclusive: 44.7 µM [inhibitor, partial curve]
O=C(O)CCCNc1cc(N2CCN(C(=O)c3ccco3)CC2)c2noc3c2c1C(=O)c1ccccc1-3 | – | active: 44.7 µM
O=c1c(O)cccc2cc(O)c(O)c(O)c12 | – | active: 3.98 µM
O=C(Nc1ccccc1)C1=C(c2ccccc2)S(=O)(=O)CCS1(=O)=O | – | inconclusive: 39.8 µM [inhibitor, partial curve]
Clc1ccccc1Cn1c(/C=C/c2ccco2)nc2ccccc21 | – | inconclusive: 79.4 µM [inhibitor, partial curve]
COCCNC(=O)Nc1ccc2nc(-c3ccco3)c(-c3ccco3)nc2c1 | – | active: 14.1 µM
CCC(=O)/C=C1/Sc2ccc(OC)cc2N1CCO | inactive: -2.17% | –
C/C(CC(=O)N1CCN(C=O)CC1)=N\NC(=O)c1cc2ccccc2cc1O | – | inconclusive: 50.1 µM [inhibitor, partial curve]
CN1C(=O)/C(=C/c2ccco2)SC1=Nc1ccc(N2CCOCC2)cc1 | – | inconclusive: 25.1 µM [inhibitor, single point]
O=C(CN1CCN(c2ccc(O)cc2)CC1)Nc1cc(S(=O)(=O)N2CCCCC2)ccc1Cl | inactive: -7.22% | –
COc1cccc(OC)c1-c1nn2c(-c3cc(-c4ccccc4)n[nH]3)nnc2s1 | – | active: 39.8 µM
O=C(Cn1c(=O)n(Cc2ccco2)c(=O)c2c3c(sc21)CCCCC3)Nc1ccccc1 | – | inconclusive: 39.8 µM [inhibitor, partial curve]
Cc1cc(C)c(NC(=O)CSc2nnc(-c3ccccn3)n2N)c(Cl)c1 | inactive: 3.87% | –
C/C(=N\NC(=O)c1cc2ccccc2cc1O)c1cccs1 | – | inconclusive: 89.1 µM [inhibitor, single point]
COc1cc([C@H](Cc2ccccc2)NC(C)=O)oc(=O)c1 | – | inconclusive: 56.2 µM [inhibitor, partial curve]

SMILES | activity change, negative = inhibition | Potency
N#Cc1c(NC(=O)c2ccncc2)sc2c1CCC2 | – | inconclusive: 56.2 µM [inhibitor, partial curve]
COc1ccc(Cl)cc1NC(=O)NCC1CCN(C(=O)OC(C)(C)C)CC1 | – | inconclusive: 3.55 µM [inhibitor, full curve, poor fit]
N#C/C(=C\c1cccs1)C(=O)c1ccccc1 | – | inconclusive: 50.1 µM [inhibitor, partial curve]
Cc1ccc(S(=O)(=O)N2CCCCCC2)cc1C(=O)Nc1cccnc1 | inactive: -22% | –
O=C(COC(=O)CCCOc1ccccc1)NNC(=O)c1ccc([N+](=O)[O-])cc1 | – | inconclusive: 44.7 µM [inhibitor, partial curve]
C=CS(=O)(=O)c1sc(Cl)c(N2CCOCC2)c1[N+](=O)[O-] | – | active: 31.6 µM
O=c1cc(CN2CCN(Cc3ccccc3)CC2)c2ccc(O)c(O)c2o1 | – | inconclusive: 31.6 µM [inhibitor, full curve, poor fit]
CN(CCc1ccccn1)S(=O)(=O)c1ccc(F)cc1 | inconclusive: -38.8% [inhibitor] [at 57.1 µM] | –
O=C1CCCCCCCN1Cc1ccccc1 | inactive: -1.48% | –
COc1ccc(NC(=O)CN(C)C(=O)c2ccc(-c3cccc(C(F)(F)F)c3)o2)cc1 | – | inconclusive: 25.1 µM [inhibitor, full curve]
COc1cc(NC(=O)c2cc3ccccc3o2)ccc1NC(=O)c1ccco1 | – | inconclusive: 70.8 µM [inhibitor, single point]
Cc1ccc(-c2c3c([nH]c(=S)c2C#N)CCCC3)o1 | – | active: 44.7 µM
Cc1ccc(NC(=O)COc2ccc(/C=N\NC(=O)c3cccnc3)cc2)cc1C | – | inconclusive: 50.1 µM [inhibitor, partial curve]
COc1ccc(S(=O)(=O)N2CCOCC2)cc1NC(=O)c1cccc(-n2cccc2)c1 | – | inconclusive: 56.2 µM [inhibitor, partial curve]
Cc1cc(C)c(CN2CCC(n3nccc3NC(=O)c3ccccc3Cl)CC2)cc1C | – | inconclusive: 50.1 µM [inhibitor, partial curve]
O=C(Nc1ccc2[nH]c(=S)sc2c1)c1ccccc1 | – | inconclusive: 39.8 µM [inhibitor, single point]
O=C(CCNS(=O)(=O)c1cccc2nonc12)N1CCN(c2cccc(Cl)c2)CC1 | inconclusive: -38.8% [inhibitor] [at 57.1 µM] | –
C=CCN=c1scc(-c2ccco2)n1/N=C/c1ccc(O)c(O)c1O | – | active: 50.1 µM
Cc1cc(C(=O)N/N=C/c2ccc(O)c([N+](=O)[O-])c2)c(C)n1-c1ccc(F)cc1 | – | inconclusive: 50.1 µM [inhibitor, partial curve]
CCOc1cc(C(N)=O)cc(Br)c1OC | inactive: 1.69% | –
O=C(C1=C(O)C(=O)N(c2ncccn2)C1c1ccc(Cl)c(Cl)c1)c1ccco1 (stereo not given) | – | inconclusive: 56.2 µM [inhibitor, partial curve]
Cc1ccc(C(=O)NNC(=O)CSc2nnc3c(n2)[nH]c2ccc(F)cc23)cc1 | inactive: -14.2% | –
Clc1ccc(OCc2nn3c(-c4ccco4)nnc3s2)c(Cl)c1 | inactive: -26.5% | –

An excerpt of these results, field by field.
COc1ccc(NC(=O)CN(C)C(=O)c2ccc(-c3cccc(C(F)(F)F)c3)o2)cc1
  Potency: inconclusive: 25.1 µM [inhibitor, full curve]
COc1cc(NC(=O)c2cc3ccccc3o2)ccc1NC(=O)c1ccco1
  Potency: inconclusive: 70.8 µM [inhibitor, single point]
Cc1ccc(-c2c3c([nH]c(=S)c2C#N)CCCC3)o1
  Potency: active: 44.7 µM
Cc1ccc(NC(=O)COc2ccc(/C=N\NC(=O)c3cccnc3)cc2)cc1C
  Potency: inconclusive: 50.1 µM [inhibitor, partial curve]

The list continues.

SMILES | activity change, negative = inhibition | Potency
Nc1c(SCCC(=O)O)ccc2c1C(=O)c1ccccc1C2=O | – | inconclusive: 50.1 µM [inhibitor, partial curve]
CC(=O)Nc1ccc(NC(=O)CSC2=NS(=O)(=O)c3cc(Cl)ccc3N2)cc1 | – | inconclusive: 25.1 µM [inhibitor, single point]
CN1CCN(c2ccc(-c3cc(NC=O)c4ncc(-c5ccc(F)c(Cl)c5)n4c3)cc2)CC1 | – | inconclusive: 39.8 µM [inhibitor, single point]
Cc1ccc(C(=O)OC(C)C(=O)c2cc(C)c(C)cc2C)o1 (stereo not given) | inactive: -5.89% | –
COc1ccccc1-c1nnc(N)s1 | – | inconclusive: 89.1 µM [inhibitor, single point]
CC(O)c1ccc(OCCN(C)c2ccccn2)cc1 (stereo not given) | – | inconclusive: 89.1 µM [inhibitor, single point]
S=c1nc2ccccc2c2nc(-c3ccccc3)[nH]n12 | – | inconclusive: 44.7 µM [inhibitor, full curve, poor fit]
CCN(CC)c1ccc(NC(=O)CCS(=O)(=O)c2ccc(Br)cc2)c(C)c1 | – | inconclusive: 2.67 µM [inhibitor, partial curve]
O=C1C=CC(=O)c2c(O)c(CO)c(CO)c(O)c21 | – | active: 7.94 µM
O=C(NC1CC1)C1=C[C@@H](c2c[nH]c3ccccc23)C[C@@H](OCc2ccc(CO)cc2)O1 | inactive: -1.99% | –
O=S(=O)(CCN1C=CC(C(F)(F)F)=NCC1)c1ccc(F)cc1 | – | inconclusive: 39.8 µM [inhibitor, single point]
COc1cc(OC)c(C2NC(=O)CCC2[N+](=O)[O-])cc1OC (stereo not given) | inactive: 4.06% | –
CCN(CC)CCNC(=O)c1ccc2c(c1NCCO)C(=O)c1ccccc1C2=O | – | inconclusive: 35.5 µM [inhibitor, partial curve]
C=CCOCCN1C(=O)C2C3C=CC(C2C1=O)C1C2C(=O)N(CCOCC=C)C(=O)C2C31 (stereo not given) | – | inconclusive: 89.1 µM [inhibitor, partial curve, poor fit]
O=C(/C=C/c1cccc([N+](=O)[O-])c1)Nc1cc(C(=O)O)cc(C(=O)O)c1 | – | inconclusive: 70.8 µM [inhibitor, single point]
CN1C(=O)/C(=C2\SC(N)=NC2=O)c2ccccc21 | – | inconclusive: 63.1 µM [inhibitor, partial curve]
COc1ccc2ccccc2c1C1CC(=O)N2CN(C)CSC2=C1C#N (stereo not given) | inactive: -30.3% | –
O=C(CCN1CCc2ccccc2C(c2ccccc2)C1)c1ccc2c(c1)OCCO2 (stereo not given) | – | active: 44.7 µM
CC1CCN(C2=NC(=O)/C(=C/c3ccccc3F)S2)CC1 | – | inconclusive: 89.1 µM [inhibitor, single point]
O=C(CSc1nnc(CNC(=O)c2c(F)cccc2F)o1)NCc1ccco1 | – | inconclusive: 89.1 µM [inhibitor, single point]
Oc1cccc(C(=S)N2CCCCC2)c1 | inactive: 3.12% [at 57.1 µM] | –
O=C1c2cccc3cc([N+](=O)[O-])cc(c23)C(=O)N1CC1CCCO1 (stereo not given) | inactive: -3.53% | –
COc1cc(/C=C2/NC(=O)NC2=O)ccc1OCC(=O)Nc1ccc(F)cc1 | – | inconclusive: 28.2 µM [inhibitor, full curve, poor fit]
